Test results published in article PMC4173157.
These are yes or no findings as the source states them, for the method shown. Binding seen in cells or lysates may run through a third protein. Here binding means that the protein was enriched with, or labelled near, the bait; the list need not be complete.

By UniProt entry, the sequences of proteins in these tests, tags left out.
UniProt Q9Y580: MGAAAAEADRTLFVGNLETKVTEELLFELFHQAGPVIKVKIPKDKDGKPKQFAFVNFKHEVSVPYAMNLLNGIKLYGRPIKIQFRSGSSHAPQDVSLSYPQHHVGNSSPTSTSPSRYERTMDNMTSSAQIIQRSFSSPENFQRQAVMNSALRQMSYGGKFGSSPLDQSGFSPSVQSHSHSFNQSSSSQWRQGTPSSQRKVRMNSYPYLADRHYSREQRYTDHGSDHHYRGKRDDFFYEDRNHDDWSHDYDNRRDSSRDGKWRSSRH
UniProt P62258: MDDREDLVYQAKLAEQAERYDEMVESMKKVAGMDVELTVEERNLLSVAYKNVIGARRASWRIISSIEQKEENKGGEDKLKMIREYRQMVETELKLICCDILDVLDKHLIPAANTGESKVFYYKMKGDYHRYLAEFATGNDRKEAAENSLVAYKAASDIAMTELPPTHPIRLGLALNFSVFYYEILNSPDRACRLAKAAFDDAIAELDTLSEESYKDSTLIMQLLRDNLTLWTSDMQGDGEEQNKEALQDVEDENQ

Target: GFP-tagged wild-type RBM7 (human) (UniProt Q9Y580)
Assay: affinity purification with mass spectrometry; GFP or GFP-RBM7 expressed in cells, immunoprecipitation, interactors identified by MS (GFP-RBM7:GFP SILAC ratios)

binding: binds
Substance: 14-3-3ɛ (endogenous, found with GFP-RBM7) (from UniProt P62258 1-255)
